Values of other authors as cited in publication PMC12406256, “Food Additives Inhibit Intestinal Drug Transporters but Have Limited Effect on In Vitro Drug Permeability” (Molecular Pharmaceutics, 2025).

Protein sequences, listed by entry. Tags and fused reporters are not part of them.
UniProt Q9UNQ0, whole entry: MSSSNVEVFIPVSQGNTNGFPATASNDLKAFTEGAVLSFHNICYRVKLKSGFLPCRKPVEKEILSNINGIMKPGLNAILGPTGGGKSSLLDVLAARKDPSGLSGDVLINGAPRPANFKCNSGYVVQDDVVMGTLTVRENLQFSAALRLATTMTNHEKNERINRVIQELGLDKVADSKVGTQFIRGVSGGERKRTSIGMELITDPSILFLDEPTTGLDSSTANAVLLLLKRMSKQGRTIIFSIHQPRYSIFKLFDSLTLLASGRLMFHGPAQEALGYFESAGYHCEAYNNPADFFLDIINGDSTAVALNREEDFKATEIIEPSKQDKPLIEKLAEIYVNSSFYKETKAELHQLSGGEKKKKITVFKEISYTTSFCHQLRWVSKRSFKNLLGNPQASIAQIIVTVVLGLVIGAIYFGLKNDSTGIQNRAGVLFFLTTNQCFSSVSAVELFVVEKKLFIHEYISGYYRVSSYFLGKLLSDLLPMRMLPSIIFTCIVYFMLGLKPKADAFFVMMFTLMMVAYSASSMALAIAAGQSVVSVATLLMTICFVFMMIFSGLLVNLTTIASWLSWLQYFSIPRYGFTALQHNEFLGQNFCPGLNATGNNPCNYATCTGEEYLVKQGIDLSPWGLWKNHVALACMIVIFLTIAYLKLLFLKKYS

Target: BCRP (Homo sapiens, UniProt Q9UNQ0)
Conditions: read-out: IC50 (95% CI), BCRP; previously characterized inhibitors; ref previous studies; tested form: Na salt; cited from earlier work

SMILES | IC50
COc1cc(S(=O)(=O)[O-])c(C)cc1N=Nc1c(O)ccc2cc(S(=O)(=O)[O-])ccc12.[Na+].[Na+] [allura red AC] | 13.3 µM and 4.42 µM
O=C([O-])C1=NN(c2ccc(S(=O)(=O)[O-])cc2)C(=O)C1N=Nc1ccc(S(=O)(=O)[O-])cc1.[Na+].[Na+].[Na+] (centres unmarked) [tartrazine] | 23.5 µM and 5.61 µM

Some entries of the source have several records that differ or are many. This list holds those alone. There may be further records. Values given together differ for a reason that is not stated; they may come from other doses, times, organisms or constructs than stated.
